Binding data for 4 molecules are collected here from article PMC2579577.

Protein sequences, listed by entry. Tags and fused reporters are not part of them.
UniProt P29067: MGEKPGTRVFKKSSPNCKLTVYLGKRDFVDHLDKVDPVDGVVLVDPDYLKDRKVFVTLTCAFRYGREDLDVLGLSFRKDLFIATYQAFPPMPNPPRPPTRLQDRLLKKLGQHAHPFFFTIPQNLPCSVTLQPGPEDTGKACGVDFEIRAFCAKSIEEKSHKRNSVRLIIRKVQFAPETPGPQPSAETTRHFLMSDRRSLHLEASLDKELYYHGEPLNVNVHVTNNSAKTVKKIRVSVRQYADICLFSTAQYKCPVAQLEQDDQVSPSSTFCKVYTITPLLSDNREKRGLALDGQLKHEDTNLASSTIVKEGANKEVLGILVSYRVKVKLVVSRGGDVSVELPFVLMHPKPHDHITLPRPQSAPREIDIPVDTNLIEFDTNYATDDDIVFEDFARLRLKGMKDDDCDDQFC
UniProt P28741: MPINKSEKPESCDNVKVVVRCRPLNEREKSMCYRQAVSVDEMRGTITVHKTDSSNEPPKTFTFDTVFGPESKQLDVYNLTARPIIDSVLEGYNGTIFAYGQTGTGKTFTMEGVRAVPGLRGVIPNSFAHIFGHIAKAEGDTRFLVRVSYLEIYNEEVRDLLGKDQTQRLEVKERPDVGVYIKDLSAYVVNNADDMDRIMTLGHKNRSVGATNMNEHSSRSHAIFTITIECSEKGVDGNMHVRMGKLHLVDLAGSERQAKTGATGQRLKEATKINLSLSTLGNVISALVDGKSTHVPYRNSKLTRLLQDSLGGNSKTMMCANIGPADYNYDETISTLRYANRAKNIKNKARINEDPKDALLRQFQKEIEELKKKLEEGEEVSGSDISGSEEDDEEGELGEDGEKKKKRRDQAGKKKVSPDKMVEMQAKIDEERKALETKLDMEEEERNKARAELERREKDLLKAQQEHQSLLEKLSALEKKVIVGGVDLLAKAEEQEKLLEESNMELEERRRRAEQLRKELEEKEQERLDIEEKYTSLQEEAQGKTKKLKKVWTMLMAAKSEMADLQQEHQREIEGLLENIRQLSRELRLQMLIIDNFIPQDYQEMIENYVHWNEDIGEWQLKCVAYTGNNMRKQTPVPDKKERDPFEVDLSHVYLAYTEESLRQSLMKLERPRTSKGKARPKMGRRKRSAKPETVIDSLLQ
UniProt Q9Y496: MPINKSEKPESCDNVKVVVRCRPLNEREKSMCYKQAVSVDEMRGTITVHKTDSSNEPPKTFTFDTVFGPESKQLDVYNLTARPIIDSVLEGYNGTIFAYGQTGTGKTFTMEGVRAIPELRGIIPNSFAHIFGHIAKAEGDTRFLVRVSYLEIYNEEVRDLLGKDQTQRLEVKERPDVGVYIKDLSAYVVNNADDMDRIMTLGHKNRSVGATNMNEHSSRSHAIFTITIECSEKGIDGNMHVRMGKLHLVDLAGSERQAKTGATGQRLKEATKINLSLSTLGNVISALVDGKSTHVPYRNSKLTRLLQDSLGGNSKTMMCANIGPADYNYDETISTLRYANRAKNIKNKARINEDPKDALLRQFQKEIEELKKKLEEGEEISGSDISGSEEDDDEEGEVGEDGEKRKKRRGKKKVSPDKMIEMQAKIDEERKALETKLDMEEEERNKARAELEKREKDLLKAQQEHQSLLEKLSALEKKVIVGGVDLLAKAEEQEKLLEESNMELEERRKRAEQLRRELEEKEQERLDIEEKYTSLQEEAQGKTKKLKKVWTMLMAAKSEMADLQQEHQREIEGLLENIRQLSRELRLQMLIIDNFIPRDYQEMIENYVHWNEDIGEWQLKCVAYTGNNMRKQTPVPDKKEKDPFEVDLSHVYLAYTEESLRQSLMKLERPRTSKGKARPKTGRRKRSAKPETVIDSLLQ

These are yes or no findings as the source states them, for the method shown. Binding seen in cells or lysates may run through a third protein. Some entries that bind do so weakly or less than the wild type. For some of these results: Tags and fused reporters may be left off the sequences shown.

For one experiment, the target named is GST-βarr2 fusion protein (UniProt P29067). Nature of the experiment: pull-down; 25 µg GST fusion immobilized on glutathione-Sepharose beads; cell lysates (500 µg of total proteins) incubated 12 h at 4°C in 50 mM Tris HCl pH 7.5, 150 mM NaCl, 1% NP40, 0.5% sodium deoxycholate; washes up to 500 mM NaCl; Western blot; only the target purified. A general note: Immunoblotting shows a protein as a band on a membrane.

In another experiment the target is T1, myc-tagged 14-3-3η (UniProt Q04917).
T1 sequence: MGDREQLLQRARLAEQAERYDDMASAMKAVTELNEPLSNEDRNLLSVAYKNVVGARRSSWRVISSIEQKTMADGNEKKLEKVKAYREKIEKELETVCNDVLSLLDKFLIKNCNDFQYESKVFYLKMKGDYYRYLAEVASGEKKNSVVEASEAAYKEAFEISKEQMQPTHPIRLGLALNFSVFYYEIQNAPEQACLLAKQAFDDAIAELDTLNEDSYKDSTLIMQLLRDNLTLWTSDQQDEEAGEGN
The experiment in a line: co-IP; COS cells transfected; lysates immunoprecipitated with 9E10 anti-myc antibody, 12 h at 4°C; Western blot with antibodies against Flag, Myc or Kif3A.

For experiment [1], the target named is Flag-tagged βarr2 (wild type) (rat) (UniProt P29067). Nature of the experiment: co-IP; COS-1 cells transiently transfected; lysates (500 µg) incubated 12 h at 4°C with M2 anti-Flag affinity agarose; washes up to 500 mM NaCl; Western blot.

As to “Endogenous Kif3A (MEFs) (from UniProt P28741 1-701)”, in the experiment with GST-βarr2 fusion protein, the binding result was “binds”.

“Endogenous Kif3A (RPE1 cells) (from UniProt Q9Y496 1-699)”: in the experiment with GST-βarr2 fusion protein, the binding entry is “binds”.

As to “Flag-tagged βarr2 (wild type) (from UniProt P29067 1-410)”, the binding entry in the experiment with myc-tagged 14-3-3η is given as “binds”.

B1: GFP-tagged 14-3-3η (protein, UniProt Q04917 1-246)
chain: MGDREQLLQRARLAEQAERYDDMASAMKAVTELNEPLSNEDRNLLSVAYKNVVGARRSSWRVISSIEQKTMADGNEKKLEKVKAYREKIEKELETVCNDVLSLLDKFLIKNCNDFQYESKVFYLKMKGDYYRYLAEVASGEKKNSVVEASEAAYKEAFEISKEQMQPTHPIRLGLALNFSVFYYEIQNAPEQACLLAKQAFDDAIAELDTLNEDSYKDSTLIMQLLRDNLTLWTSDQQDEEAGEGN
With B1, the binding entry in experiment [1] is “binds”.
